Reference: paper PMC8184755
No constants are given. Whether binding was seen depends on the method and setting. In cells and extracts the contact can be indirect. Binding can be weak; no strength is given.

Target: T1, REG3B (rat, AR42J cells) (rat (endogenous in AR42J)) (UniProt P25031)
T1 sequence: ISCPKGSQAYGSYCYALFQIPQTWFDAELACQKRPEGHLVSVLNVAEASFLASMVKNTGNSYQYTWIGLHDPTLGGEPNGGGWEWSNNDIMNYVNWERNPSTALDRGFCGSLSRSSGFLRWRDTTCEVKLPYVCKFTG
Experiment: co-IP; total lysates (2 mg, pre-cleared) incubated overnight at 4 °C with anti-REG3B antibody (20 μg/mL), Protein-G agarose beads; eluates blotted for EXTL3; mouse primary acinar cells and AR42J

binding: binds
Substance: Exostosin-like glycosyltransferase 3 (EXTL3), rat (AR42J cells) (receptor)
